From PMC8487646 come the findings set out here.

Protein sequences, listed by entry. Tags and fused reporters are not part of them.
UniProt Q9GZU1: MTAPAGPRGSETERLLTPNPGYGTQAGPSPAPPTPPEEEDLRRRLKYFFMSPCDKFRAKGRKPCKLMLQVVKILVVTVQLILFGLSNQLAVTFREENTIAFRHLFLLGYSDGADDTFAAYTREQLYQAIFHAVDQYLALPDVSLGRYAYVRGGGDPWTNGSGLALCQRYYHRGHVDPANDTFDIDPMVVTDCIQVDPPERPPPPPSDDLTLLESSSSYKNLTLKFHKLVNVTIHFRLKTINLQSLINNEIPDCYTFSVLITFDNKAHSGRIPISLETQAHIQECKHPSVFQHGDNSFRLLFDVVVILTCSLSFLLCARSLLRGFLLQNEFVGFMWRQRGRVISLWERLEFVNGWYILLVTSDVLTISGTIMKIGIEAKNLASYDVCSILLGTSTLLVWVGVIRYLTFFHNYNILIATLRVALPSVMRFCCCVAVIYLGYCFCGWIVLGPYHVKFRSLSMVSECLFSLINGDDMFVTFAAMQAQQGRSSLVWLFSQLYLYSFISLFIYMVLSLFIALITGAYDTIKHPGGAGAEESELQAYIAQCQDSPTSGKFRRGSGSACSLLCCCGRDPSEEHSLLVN

Results are given in words; binding and its absence hold for the method and conditions named. In cells and extracts the contact can be indirect. Some binding calls cover weakened binding; strength is not graded here. Tags and fused reporters may be left off the sequences shown.

The experiment has as its target T1, His-tagged Rab7b Q67L (constitutively active mutant) (UniProt Q96AH8).
T1 sequence: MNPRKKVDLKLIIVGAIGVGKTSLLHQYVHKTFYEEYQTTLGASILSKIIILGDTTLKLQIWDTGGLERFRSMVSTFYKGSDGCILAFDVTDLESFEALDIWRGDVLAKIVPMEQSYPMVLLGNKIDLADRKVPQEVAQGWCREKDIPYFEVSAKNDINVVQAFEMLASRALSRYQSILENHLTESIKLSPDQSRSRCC
Nature of the experiment: pull-down; 40 µg His–Rab fusion protein bound to Dynabeads His-Tag (cobalt-coated magnetic beads), incubated with precleared lysates from LPS-treated MDDCs for 30 min at 4°C; washed six times with 3.25 mM sodium phosphate pH 7.4, 70 mM NaCl, 0.01% Tween-20; eluted with 300 mM imidazole; western blot with anti-His and anti-TRPML1; only the target purified. On the technique in general: In western blotting, separated proteins are transferred to a membrane and probed.

As to “lysosomal Ca2+ channel TRPML1 (transient receptor potential cation channel, mucolipin subfamily, member 1) (from UniProt Q9GZU1 1-580)”, the binding entry is reported as “binds”.
